Among the data in publication doi:10.1101/2024.07.12.603302 are binding values, retold here.

Protein sequences, listed by entry. Tags and fused reporters are not part of them. Lines headed by an entry give the natural chain unless they say otherwise; changes in a name come on top.
UniProt P62136: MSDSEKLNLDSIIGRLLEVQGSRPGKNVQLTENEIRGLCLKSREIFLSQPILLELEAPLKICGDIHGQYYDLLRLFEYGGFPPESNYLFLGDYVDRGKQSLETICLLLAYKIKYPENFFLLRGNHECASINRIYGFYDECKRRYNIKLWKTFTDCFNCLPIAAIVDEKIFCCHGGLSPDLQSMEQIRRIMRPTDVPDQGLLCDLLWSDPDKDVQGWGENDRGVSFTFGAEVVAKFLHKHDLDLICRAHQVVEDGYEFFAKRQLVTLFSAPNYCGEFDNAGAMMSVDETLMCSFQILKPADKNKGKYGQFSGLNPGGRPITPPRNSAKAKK
UniProt Q96SB3: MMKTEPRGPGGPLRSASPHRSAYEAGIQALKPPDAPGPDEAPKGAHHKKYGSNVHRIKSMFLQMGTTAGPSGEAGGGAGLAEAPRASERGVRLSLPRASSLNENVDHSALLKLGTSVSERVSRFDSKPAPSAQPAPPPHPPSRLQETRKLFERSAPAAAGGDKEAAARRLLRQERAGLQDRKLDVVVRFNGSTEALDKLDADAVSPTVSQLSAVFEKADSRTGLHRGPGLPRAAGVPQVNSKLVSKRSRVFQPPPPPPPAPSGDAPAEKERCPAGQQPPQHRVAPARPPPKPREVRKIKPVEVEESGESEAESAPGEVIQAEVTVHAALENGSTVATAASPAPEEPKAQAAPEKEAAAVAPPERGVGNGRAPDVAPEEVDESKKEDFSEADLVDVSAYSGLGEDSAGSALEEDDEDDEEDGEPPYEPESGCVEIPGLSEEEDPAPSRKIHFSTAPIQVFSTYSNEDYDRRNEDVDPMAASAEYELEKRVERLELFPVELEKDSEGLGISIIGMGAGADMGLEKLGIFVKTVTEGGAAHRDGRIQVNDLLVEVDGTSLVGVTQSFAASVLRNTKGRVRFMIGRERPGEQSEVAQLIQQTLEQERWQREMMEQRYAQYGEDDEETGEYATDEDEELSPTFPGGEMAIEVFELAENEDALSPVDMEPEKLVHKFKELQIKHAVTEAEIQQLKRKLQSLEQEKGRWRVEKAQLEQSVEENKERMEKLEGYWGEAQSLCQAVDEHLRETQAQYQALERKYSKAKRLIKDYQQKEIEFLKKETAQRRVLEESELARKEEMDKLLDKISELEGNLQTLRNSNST
UniProt Q9ULJ8: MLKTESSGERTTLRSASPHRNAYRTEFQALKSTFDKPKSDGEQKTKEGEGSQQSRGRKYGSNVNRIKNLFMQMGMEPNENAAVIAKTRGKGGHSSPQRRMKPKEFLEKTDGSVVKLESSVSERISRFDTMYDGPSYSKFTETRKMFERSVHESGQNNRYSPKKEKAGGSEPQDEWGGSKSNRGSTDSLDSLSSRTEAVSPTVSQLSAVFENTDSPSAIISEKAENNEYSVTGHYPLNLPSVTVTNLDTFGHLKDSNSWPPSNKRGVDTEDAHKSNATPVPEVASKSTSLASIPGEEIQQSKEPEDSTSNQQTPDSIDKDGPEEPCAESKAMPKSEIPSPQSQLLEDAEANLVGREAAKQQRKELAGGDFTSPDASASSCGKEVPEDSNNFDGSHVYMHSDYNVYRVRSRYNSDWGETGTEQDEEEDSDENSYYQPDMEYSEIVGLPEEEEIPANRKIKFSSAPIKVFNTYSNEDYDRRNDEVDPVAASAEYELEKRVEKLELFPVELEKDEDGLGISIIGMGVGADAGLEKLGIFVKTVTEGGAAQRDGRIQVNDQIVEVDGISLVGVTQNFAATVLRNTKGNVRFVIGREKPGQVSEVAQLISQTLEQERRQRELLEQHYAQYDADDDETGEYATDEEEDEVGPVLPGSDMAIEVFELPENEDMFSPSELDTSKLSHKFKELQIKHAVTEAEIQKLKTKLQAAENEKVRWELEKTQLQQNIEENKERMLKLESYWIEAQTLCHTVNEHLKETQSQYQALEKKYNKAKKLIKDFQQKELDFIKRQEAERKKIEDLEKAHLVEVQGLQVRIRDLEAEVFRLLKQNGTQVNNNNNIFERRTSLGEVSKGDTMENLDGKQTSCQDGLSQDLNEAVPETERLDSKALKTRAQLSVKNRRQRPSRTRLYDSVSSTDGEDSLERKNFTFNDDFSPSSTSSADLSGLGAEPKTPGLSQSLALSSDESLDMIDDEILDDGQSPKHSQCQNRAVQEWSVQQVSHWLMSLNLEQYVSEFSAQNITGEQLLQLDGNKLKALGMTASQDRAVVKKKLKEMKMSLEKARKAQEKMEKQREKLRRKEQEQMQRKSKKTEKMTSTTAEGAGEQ
UniProt Q6UXN9: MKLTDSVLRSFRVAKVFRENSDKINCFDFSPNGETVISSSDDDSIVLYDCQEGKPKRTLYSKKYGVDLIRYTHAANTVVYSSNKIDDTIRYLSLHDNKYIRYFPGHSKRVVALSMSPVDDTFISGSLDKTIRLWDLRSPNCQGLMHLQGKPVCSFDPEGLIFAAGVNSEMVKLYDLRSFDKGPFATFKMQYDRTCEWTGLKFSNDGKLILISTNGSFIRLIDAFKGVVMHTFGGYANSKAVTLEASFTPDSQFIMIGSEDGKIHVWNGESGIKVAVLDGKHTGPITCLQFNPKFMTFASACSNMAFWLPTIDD
UniProt Q12972: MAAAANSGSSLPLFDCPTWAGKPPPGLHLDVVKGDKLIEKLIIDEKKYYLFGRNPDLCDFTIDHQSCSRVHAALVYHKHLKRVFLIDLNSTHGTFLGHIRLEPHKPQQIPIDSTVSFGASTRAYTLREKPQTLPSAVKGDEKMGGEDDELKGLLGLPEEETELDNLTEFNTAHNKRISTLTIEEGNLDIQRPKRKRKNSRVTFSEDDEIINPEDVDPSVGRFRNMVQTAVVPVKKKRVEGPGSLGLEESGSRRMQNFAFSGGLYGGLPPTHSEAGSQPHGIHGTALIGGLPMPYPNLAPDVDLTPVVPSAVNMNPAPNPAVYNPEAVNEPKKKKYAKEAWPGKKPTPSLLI
UniProt Q6NZY4: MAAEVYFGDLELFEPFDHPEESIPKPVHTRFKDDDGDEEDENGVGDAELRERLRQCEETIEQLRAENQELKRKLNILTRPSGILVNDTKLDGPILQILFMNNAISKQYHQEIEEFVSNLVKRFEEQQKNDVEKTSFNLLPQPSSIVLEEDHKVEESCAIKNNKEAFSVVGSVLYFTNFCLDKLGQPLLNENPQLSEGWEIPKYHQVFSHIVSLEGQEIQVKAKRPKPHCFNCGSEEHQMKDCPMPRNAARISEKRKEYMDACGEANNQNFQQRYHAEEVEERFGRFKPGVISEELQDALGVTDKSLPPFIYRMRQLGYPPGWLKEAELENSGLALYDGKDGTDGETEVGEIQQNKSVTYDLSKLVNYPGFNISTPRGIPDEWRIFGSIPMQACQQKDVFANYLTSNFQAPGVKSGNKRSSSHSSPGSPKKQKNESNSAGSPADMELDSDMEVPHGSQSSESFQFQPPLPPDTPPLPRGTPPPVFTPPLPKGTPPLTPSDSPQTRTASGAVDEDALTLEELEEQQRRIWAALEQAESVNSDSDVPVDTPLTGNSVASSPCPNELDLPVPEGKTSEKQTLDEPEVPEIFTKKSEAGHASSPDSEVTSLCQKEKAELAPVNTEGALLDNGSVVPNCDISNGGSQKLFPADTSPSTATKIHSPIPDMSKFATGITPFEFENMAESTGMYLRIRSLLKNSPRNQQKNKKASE
UniProt Q5UIP0: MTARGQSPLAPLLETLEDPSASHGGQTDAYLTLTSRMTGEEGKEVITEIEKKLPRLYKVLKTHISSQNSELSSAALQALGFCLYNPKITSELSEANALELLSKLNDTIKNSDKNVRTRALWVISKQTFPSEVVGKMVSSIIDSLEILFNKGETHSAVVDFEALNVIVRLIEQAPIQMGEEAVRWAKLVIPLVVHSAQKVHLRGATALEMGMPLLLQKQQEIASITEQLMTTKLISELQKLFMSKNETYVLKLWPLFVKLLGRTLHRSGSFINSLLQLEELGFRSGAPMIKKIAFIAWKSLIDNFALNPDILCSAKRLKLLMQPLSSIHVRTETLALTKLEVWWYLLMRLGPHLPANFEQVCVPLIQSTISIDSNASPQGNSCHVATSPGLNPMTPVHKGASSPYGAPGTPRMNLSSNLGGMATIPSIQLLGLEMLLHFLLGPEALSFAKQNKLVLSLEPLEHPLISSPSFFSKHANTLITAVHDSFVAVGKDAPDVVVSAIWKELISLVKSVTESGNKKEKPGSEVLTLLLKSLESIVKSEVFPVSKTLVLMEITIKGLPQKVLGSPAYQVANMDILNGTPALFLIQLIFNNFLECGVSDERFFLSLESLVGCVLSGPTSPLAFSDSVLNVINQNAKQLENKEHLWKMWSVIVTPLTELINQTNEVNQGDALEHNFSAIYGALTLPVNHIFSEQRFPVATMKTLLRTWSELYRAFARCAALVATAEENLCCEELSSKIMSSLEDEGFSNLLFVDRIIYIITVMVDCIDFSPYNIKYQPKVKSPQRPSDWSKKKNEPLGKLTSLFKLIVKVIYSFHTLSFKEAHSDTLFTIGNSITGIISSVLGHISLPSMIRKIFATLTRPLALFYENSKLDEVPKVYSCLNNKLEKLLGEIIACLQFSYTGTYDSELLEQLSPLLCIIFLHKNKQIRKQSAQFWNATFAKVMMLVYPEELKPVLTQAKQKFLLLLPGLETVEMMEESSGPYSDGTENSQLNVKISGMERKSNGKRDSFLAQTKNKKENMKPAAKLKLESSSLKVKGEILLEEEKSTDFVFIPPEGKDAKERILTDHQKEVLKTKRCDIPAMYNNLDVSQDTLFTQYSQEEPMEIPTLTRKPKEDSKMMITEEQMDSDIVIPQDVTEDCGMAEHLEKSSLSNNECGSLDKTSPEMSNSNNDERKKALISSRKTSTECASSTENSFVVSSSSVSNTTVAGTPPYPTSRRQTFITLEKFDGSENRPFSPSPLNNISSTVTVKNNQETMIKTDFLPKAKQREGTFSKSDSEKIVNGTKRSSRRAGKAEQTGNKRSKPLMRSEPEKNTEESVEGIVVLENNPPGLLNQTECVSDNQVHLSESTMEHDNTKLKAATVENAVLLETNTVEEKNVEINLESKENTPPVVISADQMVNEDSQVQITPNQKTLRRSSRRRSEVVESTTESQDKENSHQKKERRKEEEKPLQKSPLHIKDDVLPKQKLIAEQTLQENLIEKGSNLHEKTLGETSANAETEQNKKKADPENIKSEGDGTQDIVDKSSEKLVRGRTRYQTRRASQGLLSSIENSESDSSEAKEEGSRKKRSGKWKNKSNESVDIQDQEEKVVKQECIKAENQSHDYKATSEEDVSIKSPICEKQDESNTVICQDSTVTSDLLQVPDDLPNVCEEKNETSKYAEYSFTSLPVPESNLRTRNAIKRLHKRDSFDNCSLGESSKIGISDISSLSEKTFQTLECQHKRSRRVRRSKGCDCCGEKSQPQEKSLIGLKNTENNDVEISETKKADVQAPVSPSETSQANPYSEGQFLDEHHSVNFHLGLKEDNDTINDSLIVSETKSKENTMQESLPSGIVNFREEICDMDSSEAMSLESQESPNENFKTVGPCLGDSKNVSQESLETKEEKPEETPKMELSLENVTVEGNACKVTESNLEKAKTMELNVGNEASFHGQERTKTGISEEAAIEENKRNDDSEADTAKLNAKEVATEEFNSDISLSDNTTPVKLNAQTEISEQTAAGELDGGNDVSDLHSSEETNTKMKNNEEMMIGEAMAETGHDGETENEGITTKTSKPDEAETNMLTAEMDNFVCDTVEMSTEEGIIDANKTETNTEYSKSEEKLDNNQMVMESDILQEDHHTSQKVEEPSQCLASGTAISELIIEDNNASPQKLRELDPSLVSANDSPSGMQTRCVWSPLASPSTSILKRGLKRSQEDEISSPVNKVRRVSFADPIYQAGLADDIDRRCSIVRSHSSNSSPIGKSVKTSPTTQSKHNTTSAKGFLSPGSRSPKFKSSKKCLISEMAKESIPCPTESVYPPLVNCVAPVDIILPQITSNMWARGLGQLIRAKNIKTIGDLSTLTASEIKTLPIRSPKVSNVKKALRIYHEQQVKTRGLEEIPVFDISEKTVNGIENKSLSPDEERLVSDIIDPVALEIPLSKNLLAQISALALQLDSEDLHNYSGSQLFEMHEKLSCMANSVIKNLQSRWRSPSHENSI

No constants are given. Whether binding was seen depends on the method and setting. In cells and extracts the contact can be indirect. Here binding means that the protein was enriched with, or labelled near, the bait; the list need not be complete. For some of these results: Where a sequence is shown, tags or fusion partners need not be part of it.

What all share (test): affinity purification with mass spectrometry
Assay [1] concerns the target T1, Full length Avitag-PNUTS 1-940 (UniProt Q96QC0).
T1 sequence: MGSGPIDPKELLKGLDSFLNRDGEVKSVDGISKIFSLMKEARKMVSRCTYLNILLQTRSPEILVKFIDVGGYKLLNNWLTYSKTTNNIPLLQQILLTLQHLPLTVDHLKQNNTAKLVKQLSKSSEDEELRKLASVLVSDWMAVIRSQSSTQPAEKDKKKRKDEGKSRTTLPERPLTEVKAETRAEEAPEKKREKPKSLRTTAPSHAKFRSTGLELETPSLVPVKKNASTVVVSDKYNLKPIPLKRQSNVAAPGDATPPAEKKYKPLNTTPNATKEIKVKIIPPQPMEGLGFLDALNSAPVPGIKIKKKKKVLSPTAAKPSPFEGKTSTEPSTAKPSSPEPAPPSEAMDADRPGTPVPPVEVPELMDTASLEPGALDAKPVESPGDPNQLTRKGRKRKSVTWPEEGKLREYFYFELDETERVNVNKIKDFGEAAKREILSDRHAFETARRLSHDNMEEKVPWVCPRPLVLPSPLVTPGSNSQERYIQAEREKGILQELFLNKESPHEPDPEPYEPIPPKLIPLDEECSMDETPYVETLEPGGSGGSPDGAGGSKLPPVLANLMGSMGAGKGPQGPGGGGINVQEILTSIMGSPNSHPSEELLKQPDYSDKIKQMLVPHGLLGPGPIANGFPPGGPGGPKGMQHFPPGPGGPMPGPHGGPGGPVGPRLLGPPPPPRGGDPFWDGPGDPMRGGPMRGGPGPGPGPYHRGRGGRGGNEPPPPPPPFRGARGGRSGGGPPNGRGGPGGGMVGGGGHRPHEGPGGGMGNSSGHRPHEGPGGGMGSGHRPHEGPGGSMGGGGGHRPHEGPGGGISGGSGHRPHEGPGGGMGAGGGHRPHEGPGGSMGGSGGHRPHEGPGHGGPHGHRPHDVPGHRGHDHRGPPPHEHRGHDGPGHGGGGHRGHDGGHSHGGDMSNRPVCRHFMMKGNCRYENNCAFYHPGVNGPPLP

Assay [2] deals with PP1^H66K-PNUTS fusion: Avitag PP1α (1-304, H66K) linked by SGSGS to PNUTS (408-940) (UniProt P62136).
In assay [3] the target is PP1^WT-PNUTS fusion: Avitag PP1α (1-304) linked by SGSGS to PNUTS (408-940) (UniProt P62136).

Take “PPP1R9B (spinophilin) (from UniProt Q96SB3 1-817)”: the binding entry in assay [1] is recorded as “binds”. On to PPP1R9A (from UniProt Q9ULJ8 1-1098), for which the binding result in assay [2] is on record as “binds”. On the same count and under the same terms, the entry for MK167 (from UniProt P46013 1-3256) is “binds”.

For WDR82 (from UniProt Q6UXN9 1-313), the binding entry in assay [1], in assay [2] and in assay [3] was “binds” each time. Take PPP1R8 (from UniProt Q12972 1-351): the binding result in assay [1], in assay [2] and in assay [3] was “binds” throughout. Turning to “PP1 catalytic subunit (PPP1CA) (from UniProt P62136 1-330) (enzyme)”, in assay [1], the binding entry was “binds”. As for ZCCHC8 (from UniProt Q6NZY4 1-707), the binding result in assay [2] was “binds”. Turning to RIF1 (from UniProt Q5UIP0 1-2472), the binding entry in assay [2] and in assay [3] was “binds” in each case.
